In the experiment the test system is ZO1 expression in T84 cells. Nature of the experiment: IFNγ-mediated loss of ZO1 expression in T84 cells (immunofluorescence). It counts as cell-based, human. As to conditions: pre-treatment with 1 mM metabolite for 18 hours, IFNγ 48 hours. From the text: Tight junctions (TJs) form a continuous barrier between epithelial cells and act to control paracellular permeability. ZO1 plays a key role in tight junction assembly and we therefore assessed the ability of I. colisanans MH27 supernatant extract to mitigate IFNγ-mediated loss of ZO1 expression in T84 cells. Stimulation with IFNγ caused a marked reduction in ZO1 expression (FIG. 11). […] In contrast, pre-treatment with I. colisanans MH27-1, MH27-2, and MH27-3 supernatant extract amelioratered the IFNγ induced reduction in ZO1 expression (FIG. 11).
Bacterial culture supernatant extracts were prepared using an Amberlite XAD-7 resin as previously described by Colosimo et al. (supra). Briefly, activated Amberlite XAD-7 resin was added to 150 mL of 3 kDa-filtered cell-free supernatant (10% w/v), and gently shaken overnight at 4° C. The resin was collected, washed with 150 mL of deionized water, and mixed with 50 mL 100% methanol. Following 2 h incubation with gentle shaking, the methanol elution was collected. A second elution in 25 mL of 100% methanol was performed as previously described and the two elution were combined and dried with a rotary evaporator under vacuum. […]
The ability of I. colisanans MH27-1, MH27-2, and MH27-3 to prevent IFNγ-mediated loss of Zonula Occludens 1 (ZO1) expression was assessed through immunofluorescence staining and confocal microscopy. […]

Structures are written as SMILES.

As to `NCCC[C@H](N)C(=O)O` [Ornithine], the “IFNγ-induced reduction in ZO1 expression” value was “significantly ameliorated”.

Source of the values: patent publication US20260027161A1, “BACTERIAL STRAINS FOR TREATING DISEASE” (MICROBA IP PTY LTD, priority 2021, published 2026).
